Results deposited as PubChem BioAssay AID1053208 (Peter MacCallum Cancer Centre, 2014)
Shown is one part, drawn at random, of about 17,000 deposited reagents. In the full data, 788 (4.7%) are marked active. 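Calls rest on z-score classes alone; an extra cut-off of viability at most 70% of control was not applied to them.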 Some reagents were tested in more than one well and are listed for each. Further read-outs or replicates are left out here.

Purpose: 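Synthetic lethal interactions between gene loss and doxorubicin in osteosarcoma cells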 (primary screen)
System: mouse osteosarcoma cells, early-passage culture from an engineered mouse model of fibroblastic bone tumour
Reagent: siRNA pool against mouse genes, 40 nM
Time to read-out: about 120 h (48 h before drug, then 72 h with drug)
Treatment: doxorubicin 100 nM for 72 h, roughly 30-40% inhibitory dose
Detection: 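Luminescent ATP signal taken as viability with or without 100 nM doxorubicin for 72 h; mean of two wells set against non-targeting siRNA and turned into robust z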
Scale: viability z-score with doxorubicin: higher = more viable cells under doxorubicin; viability z-score without drug: higher = more viable cells with knock-down alone
Active means: 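Called active if knock-down leaves viability unchanged without drug (z within -2 to 2) but lowers it with doxorubicin (z at or under -2)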

| target | combined z-score class | viability z-score with doxorubicin | viability z-score without drug | activity call |
| --- | --- | --- | --- | --- |
| Itih3 | low cell count with doxorubicin only | -2.02 | -1.18 | active |
| Cenpq | no change with or without drug | 0.45 | 0.51 | inactive |
| Or2a25 | no change with or without drug | -0.22 | -1.18 | inactive |
| F8 | no change with or without drug | -0.67 | -0.17 | inactive |
| Clec2g | no change with or without drug | 0.9 | -0.51 | inactive |
| Bcl2l13 | no change with or without drug | 1.01 | 1.52 | inactive |
| Spi1 | no change with or without drug | 0 | 0.34 | inactive |
| Or10q12 | no change with or without drug | 0.79 | -1.85 | inactive |
| Adap1 | no change with or without drug | -1.24 | -0.84 | inactive |
| Slc30a7 | low cell count with doxorubicin only | -2.81 | -1.18 | active |
| Evi2b | no change with or without drug | -1.35 | 0.51 | inactive |
| Myh2 | no change with or without drug | -0.79 | -0.17 | inactive |
| Kdm1a | no change with or without drug | 0.9 | 0.84 | inactive |
| Scyl3 | no change with or without drug | -0.22 | -0.84 | inactive |
| Scyl3 | low cell count with doxorubicin only | -2.7 | -1.52 | active |
| Spink1 | no change with or without drug | 0.11 | -0.84 | inactive |
| Cox20 | no change with or without drug | -1.24 | 0.17 | inactive |
| Fgd4 | no change with or without drug | 0.45 | 1.01 | inactive |
| Ssty1 | no change with or without drug | 0.56 | 1.18 | inactive |
| Tnfsf13 | no change with or without drug | 0.45 | 0.51 | inactive |

Taken from above:
Spi1, viability z-score without drug → 0.34
Under “viability z-score with doxorubicin”, F8 shows -0.67
